Here are results for one molecule from paper PMC4773067 (PLoS ONE, 2016).

Protein sequences, listed by entry. Tags and fused reporters are not part of them. Residues count along the entry.
UniProt P47872, residues 23-440: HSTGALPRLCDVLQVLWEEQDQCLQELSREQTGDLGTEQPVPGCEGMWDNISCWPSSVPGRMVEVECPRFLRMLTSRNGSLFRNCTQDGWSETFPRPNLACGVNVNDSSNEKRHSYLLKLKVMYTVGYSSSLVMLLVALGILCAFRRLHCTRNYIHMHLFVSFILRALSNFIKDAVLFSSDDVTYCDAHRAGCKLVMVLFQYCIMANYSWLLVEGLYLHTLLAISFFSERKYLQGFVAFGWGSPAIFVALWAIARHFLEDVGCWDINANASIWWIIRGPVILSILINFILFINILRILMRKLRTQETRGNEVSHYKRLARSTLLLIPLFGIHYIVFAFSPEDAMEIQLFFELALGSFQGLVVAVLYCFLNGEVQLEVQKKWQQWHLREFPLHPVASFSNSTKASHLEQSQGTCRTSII

The test addresses human secretin receptor (human) (UniProt P47872). Nature of the test: FRET or BRET; competitive binding, dose response 10^-12 M to 10^-4 M of unlabelled peptide against 500 nM labelled hSCT on CHO-K1 cells with Lumi4-Tb-labelled SNAPtag-hSR, 4–8°C, 1 h; nonspecific signal with 100 μM unlabelled hSCT subtracted; four-parameter fit; only the binder purified. For orientation: Bioluminescence resonance energy transfer reports proximity on the nanometre scale.

These are yes or no findings as the source states them, for the method shown. Binding seen in cells or lysates may run through a third protein. Some results given as binding are weak or reduced against the parent protein; the word gives no strength.

B1: h[Gly^28, Alexa-Cys^29]SCT (peptide)
peptide: HSDGTFTSELSRLREGARLQRLLQGLVGC
modifications: Alexa Fluor 488 C5 maleimide on Cys29
For B1, the binding result is “binds”.
